These are yes or no findings as the source states them, for the method shown. Binding seen in cells or lysates may run through a third protein. Some results given as binding are weak or reduced against the parent protein; the word gives no strength.
Legend:
[1] = biological target: β-catenin (full-length human), expressed from pShuttle-IRES-hrGFP-2 (human) (UniProt P35222); test: co-IP; lysates of transfected PC12 cells 72 h after transfection; IP buffer 50 mmol/L Tris-HCl pH 8.0, 150 mmol/L NaCl, 1% NP-40; 500 μg lysate; anti-β-catenin or anti-Nurr1 antibody, protein-A-Sepharose; normal rabbit IgG as control; Western blot
[2] = biological target: β-catenin (full-length human), expressed from pShuttle-IRES-hrGFP-2 (human) (UniProt P35222); test: co-IP; lysates of transfected HEK-293T cells 72 h after transfection; IP buffer 50 mmol/L Tris-HCl pH 8.0, 150 mmol/L NaCl, 1% NP-40; 500 μg lysate; anti-β-catenin or anti-Nurr1 antibody, protein-A-Sepharose; normal rabbit IgG as control; Western blot

Amino acid sequences for entries named in this document (tags omitted).
UniProt P35222: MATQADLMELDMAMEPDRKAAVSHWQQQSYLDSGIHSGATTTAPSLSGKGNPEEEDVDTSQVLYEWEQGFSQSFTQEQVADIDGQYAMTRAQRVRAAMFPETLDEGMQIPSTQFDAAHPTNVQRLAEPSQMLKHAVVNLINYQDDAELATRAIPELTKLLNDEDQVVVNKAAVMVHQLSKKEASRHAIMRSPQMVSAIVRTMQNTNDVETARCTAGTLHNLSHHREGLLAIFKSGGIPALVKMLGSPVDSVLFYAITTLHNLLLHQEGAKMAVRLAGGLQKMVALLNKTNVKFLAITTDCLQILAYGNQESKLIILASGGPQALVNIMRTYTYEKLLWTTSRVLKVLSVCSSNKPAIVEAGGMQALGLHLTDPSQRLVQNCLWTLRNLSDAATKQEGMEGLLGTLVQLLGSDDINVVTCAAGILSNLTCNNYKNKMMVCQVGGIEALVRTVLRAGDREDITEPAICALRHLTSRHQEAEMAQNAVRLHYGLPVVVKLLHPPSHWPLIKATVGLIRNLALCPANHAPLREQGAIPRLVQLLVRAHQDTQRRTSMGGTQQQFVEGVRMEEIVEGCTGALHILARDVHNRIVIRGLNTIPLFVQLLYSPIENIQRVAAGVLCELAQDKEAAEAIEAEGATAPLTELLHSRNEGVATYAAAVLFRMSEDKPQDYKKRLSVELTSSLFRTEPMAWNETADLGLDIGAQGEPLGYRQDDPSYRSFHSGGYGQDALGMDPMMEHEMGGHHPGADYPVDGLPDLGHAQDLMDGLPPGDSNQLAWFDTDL
UniProt P43354: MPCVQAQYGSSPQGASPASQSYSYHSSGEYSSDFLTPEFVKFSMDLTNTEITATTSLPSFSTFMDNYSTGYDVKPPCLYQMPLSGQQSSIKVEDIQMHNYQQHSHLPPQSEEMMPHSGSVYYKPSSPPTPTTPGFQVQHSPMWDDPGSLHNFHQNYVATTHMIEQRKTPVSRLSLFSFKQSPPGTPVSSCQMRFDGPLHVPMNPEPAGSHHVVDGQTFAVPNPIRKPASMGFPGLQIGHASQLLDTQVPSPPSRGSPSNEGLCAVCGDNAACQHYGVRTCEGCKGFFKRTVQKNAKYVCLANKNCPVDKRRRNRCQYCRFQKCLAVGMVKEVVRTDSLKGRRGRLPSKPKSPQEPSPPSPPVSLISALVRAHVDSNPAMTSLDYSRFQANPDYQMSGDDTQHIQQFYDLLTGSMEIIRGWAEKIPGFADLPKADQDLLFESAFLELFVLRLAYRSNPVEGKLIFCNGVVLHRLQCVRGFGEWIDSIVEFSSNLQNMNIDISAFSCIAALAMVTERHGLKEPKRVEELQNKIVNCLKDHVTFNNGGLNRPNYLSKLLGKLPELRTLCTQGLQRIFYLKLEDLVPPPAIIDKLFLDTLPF

binding [1]: binds | binding [2]: binds
Substance: Nurr1 (full-length human), expressed from pShuttle-IRES-hrGFP-2 (from UniProt P43354 1-598)

— publication PMC4821554
